Results as given in US20080064048A1, “Methods for Selecting Proteins that are Readily Presented as Antigens on Dendritic Cells” (Medical and Biological Laboratories, Co., Ltd., priority 2004, published 2008).

Tested on: DC2.4 cells
Assay: Pulse-chase degradation of cell-bound bOVA (SA beads, SDS-PAGE, Western blot)
Assay type: cell-based, mouse
Experimental: Triton X-100 was used to lyse membranes. […] DC2.4 cells were pulsed with bOVA and chased. bOVA was recovered using SA beads, then separated by SDS-PAGE followed by Western blotting using SA-HRP Ctl: a control not containing inhibitors. […] Asterisks in the left panel indicate non-specific binding with SA-HRP.
Next, DC2.4 cells were incubated with bOVA for one hour, and this was then chased for up to four hours. Cell-bound bOVA was recovered from total cell lysates by streptavidin-agarose and separated by SDS-PAGE.
Depletion of Ca^2+ in the ER is known to inhibit ERAD. Thapsigargin (Tg) is known to decrease the Ca^2+ concentration in the ER lumen by binding to the ER membrane and functioning as an ionophore and to inhibit ERA D. Thus, in the presence of Tg, bOVA degradation by ERAD is predicted to be suppressed. DC2.4 cells were pulsed with bOVA in the presence of MG-132, then washed with PBS or with PBS containing 1 mM EGTA, and then chased for four hours.

Molecule	accumulated bOVA during chase with Ca2+ depletion (DC2.4, washed with PBS containing 1 mM EGTA, chase 4 h)	bOVA degradation with TAP1 knock-down (DC2.4 TAP1 knock-down)	bOVA retained during chase in VCP-knocked-down cells vs parental (DC2.4 V41 and V41-1)	bOVA degradation after re-addition of Ca2+ (DC2.4 pre-exposed to EGTA, Ca2+ 1 mM re-added)	decrease in accumulated OVA in CHIP-knocked-down cells (DC2.4 C4 and C4F-1)	decrease of accumulated OVA in Sec61α-knocked-down cells vs parental (DC2.4 S22 and S22-3)
bOVA: biotin-labeled OVA antigen (protein) GSIGAASMEFCFDVFKELKVHHANENIFYCPIAIMSALAMVYLGAKDSTRTQINKVVRFDKLPGFGDSIEAQCGTSVNVHSSLRDILNQITKPNDVYSFSLASRLYAEERYPILPEYLQCVKELYRGGLEPINFQTAADQARELINSWVESQTNGIIRNVLQPSSVDSQTAMVLVNAIVFKGLWEKAFKDEDTQAMPFRVTEQESKPVQMMYQIGLFRVASMASEKMKILELPFASGTMSMLVLLPDEVSGLEQLESIINFEKLTEWTSSNVMEERKIKVYLPRMKMEEKYNLTSVLMAMGITDVFSSSANLSGISSAESLKISQAVHAAHAEINEAGREVVGSAEAGVDAASVSEEFRADHPFLFCIKHIATNAVLFFGRCVSP	did not decrease	did not affect	retained larger amounts	restored	–	–
Chicken ovalbumin (protein, Chicken ovalbumin used as an antigen model) GSIGAASMEFCFDVFKELKVHHANENIFYCPIAIMSALAMVYLGAKDSTRTQINKVVRFDKLPGFGDSIEAQCGTSVNVHSSLRDILNQITKPNDVYSFSLASRLYAEERYPILPEYLQCVKELYRGGLEPINFQTAADQARELINSWVESQTNGIIRNVLQPSSVDSQTAMVLVNAIVFKGLWEKAFKDEDTQAMPFRVTEQESKPVQMMYQIGLFRVASMASEKMKILELPFASGTMSMLVLLPDEVSGLEQLESIINFEKLTEWTSSNVMEERKIKVYLPRMKMEEKYNLTSVLMAMGITDVFSSSANLSGISSAESLKISQAVHAAHAEINEAGREVVGSAEAGVDAASVSEEFRADHPFLFCIKHIATNAVLFFGRCVSP	–	–	–	–	slowed down	decreased more slowly
